PMC4287440
Results are given in words; binding and its absence hold for the method and conditions named. Binding seen in cells or lysates may run through a third protein. Some entries that bind do so weakly or less than the wild type.

Protein sequences, listed by entry. Tags and fused reporters are not part of them.
UniProt P47035: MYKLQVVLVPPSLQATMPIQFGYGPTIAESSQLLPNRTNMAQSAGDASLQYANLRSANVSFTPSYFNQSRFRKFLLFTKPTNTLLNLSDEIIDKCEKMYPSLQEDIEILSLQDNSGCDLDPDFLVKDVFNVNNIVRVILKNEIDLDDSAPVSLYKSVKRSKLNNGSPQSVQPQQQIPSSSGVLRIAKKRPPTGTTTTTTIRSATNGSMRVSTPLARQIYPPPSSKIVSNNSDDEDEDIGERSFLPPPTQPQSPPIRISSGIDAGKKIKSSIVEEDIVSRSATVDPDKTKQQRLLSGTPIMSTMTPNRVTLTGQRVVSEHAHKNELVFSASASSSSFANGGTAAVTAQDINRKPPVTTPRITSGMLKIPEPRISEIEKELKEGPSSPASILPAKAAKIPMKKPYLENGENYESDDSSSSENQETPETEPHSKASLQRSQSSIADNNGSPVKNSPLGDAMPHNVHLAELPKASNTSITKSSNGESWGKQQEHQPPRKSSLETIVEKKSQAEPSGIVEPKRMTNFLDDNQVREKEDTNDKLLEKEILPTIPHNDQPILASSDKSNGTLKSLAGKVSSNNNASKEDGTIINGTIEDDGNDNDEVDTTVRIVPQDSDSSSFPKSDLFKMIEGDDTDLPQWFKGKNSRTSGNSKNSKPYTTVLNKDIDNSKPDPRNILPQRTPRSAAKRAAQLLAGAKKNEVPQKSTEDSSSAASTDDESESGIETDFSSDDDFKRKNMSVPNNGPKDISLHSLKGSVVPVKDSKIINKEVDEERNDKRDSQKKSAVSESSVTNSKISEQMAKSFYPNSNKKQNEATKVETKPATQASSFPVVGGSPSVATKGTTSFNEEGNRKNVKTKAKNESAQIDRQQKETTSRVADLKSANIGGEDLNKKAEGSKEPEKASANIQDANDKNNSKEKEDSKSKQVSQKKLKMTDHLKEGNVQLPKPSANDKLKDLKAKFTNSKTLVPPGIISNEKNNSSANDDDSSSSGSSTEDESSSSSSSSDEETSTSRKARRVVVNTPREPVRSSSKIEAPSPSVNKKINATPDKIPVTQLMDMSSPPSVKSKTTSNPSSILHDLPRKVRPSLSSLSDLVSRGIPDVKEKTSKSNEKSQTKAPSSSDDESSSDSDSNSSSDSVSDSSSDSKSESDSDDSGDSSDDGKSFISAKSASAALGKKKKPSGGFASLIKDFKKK

T1: Nur1-Pk (S. cerevisiae) (UniProt Q12066)
T1 sequence: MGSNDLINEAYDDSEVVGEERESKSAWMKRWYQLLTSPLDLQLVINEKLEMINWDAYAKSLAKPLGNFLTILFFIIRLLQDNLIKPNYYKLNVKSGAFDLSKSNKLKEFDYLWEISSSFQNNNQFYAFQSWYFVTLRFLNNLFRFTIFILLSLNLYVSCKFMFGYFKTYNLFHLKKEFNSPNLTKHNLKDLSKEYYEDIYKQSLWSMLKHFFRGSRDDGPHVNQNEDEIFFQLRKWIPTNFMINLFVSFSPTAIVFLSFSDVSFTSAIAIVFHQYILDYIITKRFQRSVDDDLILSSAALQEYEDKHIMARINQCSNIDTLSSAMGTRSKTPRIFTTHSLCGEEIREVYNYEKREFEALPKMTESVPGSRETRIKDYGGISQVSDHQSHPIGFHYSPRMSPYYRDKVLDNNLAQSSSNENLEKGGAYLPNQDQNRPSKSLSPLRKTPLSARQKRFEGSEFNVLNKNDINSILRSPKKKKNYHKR

B1: Nur1-Pk (protein, UniProt Q12066 1-484)
chain: T1 sequence
B2: Cdc14 (enzyme, UniProt Q00684 1-551)
chain: MRRSVYLDNTIEFLRGRVYLGAYDYTPEDTDELVFFTVEDAIFYNSFHLDFGPMNIGHLYRFAVIFHEILNDPENANKAVVFYSSASTRQRANAACMLCCYMILVQAWTPHQVLQPLAQVDPPFMPFRDAGYSNADFEITIQDVVYGVWRAKEKGLIDLHSFNLESYEKYEHVEFGDFNVLTPDFIAFASPQEDHPKGYLATKSSHLNQPFKSVLNFFANNNVQLVVRLNSHLYNKKHFEDIGIQHLDLIFEDGTCPDLSIVKNFVGAAETIIKRGGKIAVHCKAGLGRTGCLIGAHLIYTYGFTANECIGFLRFIRPGMVVGPQQHWLYLHQNDFREWKYTTRISLKPSEAIGGLYPLISLEEYRLQKKKLKDDKRVAQNNIEGELRDLTMTPPSNGHGALSARNSSQPSTANNGSNSFKSSAVPQTSPGQPRKGQNGSNTIEDINNNRNPTSHANRKVVIESNNSDDESMQDTNGTSNHYPKVSRKKNDISSASSSRMEDNEPSATNINNAADDTILRQLLPKNRRVTSGRRTTSAAGGIRKISGSIKK

Tests used:
Net1-myc (S. cerevisiae) = Net1-myc (S. cerevisiae) (UniProt P47035); assay: co-IP; Net1-myc immunoprecipitated with α-myc antibody on Protein A Dynabeads from yeast cell extracts in EBXG buffer (50 mM HEPES pH 8.0, 100 mM KCl, 2.5 mM MgCl2, 10% glycerol, 0.25% Triton X-100, 1 mM DTT); extracts taken at intervals through a synchronous cell cycle after G1 release; Nur1-Pk examined by Western blot
Nur1-Pk (S. cerevisiae) = target: T1, Nur1-Pk (S. cerevisiae); assay: co-IP; Nur1 immunoprecipitated from yeast cell extracts throughout the cell cycle and Cdc14 detected in the immunoprecipitates; no figure cited

Binder	binding (Net1-myc (S. cerevisiae))	binding (Nur1-Pk (S. cerevisiae))
B1	binds	
B2		binds
